Measured values reported in patent US20210355450A1, “CERVICAL CANCER ORGANOIDS” (Max-Planck-Gesellschaft zur Förderung der Wissenschaften …, priority 2018, published 2021).
At least one compound was matched to its structure with a doubt left.

System: human ectocervical organoids
Assay: Human ectocervical organoid culture: formation, growth, differentiation
Assay type: cell-based
Settings: cAMP pathway agonist in culture medium; FIG. 2A, 8D-E
Procedure: The medium consisted of ADF, 12 mM HEPES and 1% GlutaMax, supplemented with 1% B27, 1% N2, 0.5 μg/ml hydrocortisone (Sigma, #H0888-1G), 10 ng/ml human EGF (Invitrogen, #PHG0311), 100 ng/ml human noggin (Peprotech; #120-10C), 100 ng/ml human FGF-10 (Peprotech, #100-26-25), 1.25 mM N-acetyl-L-cysteine, 10 mM nicotinamide, 2 μM TGF-β R kinase Inhibitor IV, 10 μM ROCK inhibitor (Y-27632), 10 μM forskolin (Sigma, F6886) and 1% penicillin/streptomycin.
Cells isolated from tissue or the stem cells grown in 2D culture were mixed with 50 μl of ice cold Matrigel (BD, #356231) at a density of 20,000 cells, and the Matrigel droplet was placed in a pre-warmed 24-well plate and allowed to polymerize for 10 min at 37° C. The Matrigel droplet was then overlaid with 500 μl of pre-warmed human ecto- or endocervical medium. Cultures were kept at 37° C., 5% CO2 in a humidified incubator for 2-3 weeks and medium replaced every four days. For passaging the organoids, Matrigel was first dissolved by adding 1 ml of ice cold ADF and pipetting up and down 5 times. […]
Stem cells were counted and a defined number resuspended in 50 μl of Matrigel to generate organoids as described above. Between 2-3 weeks after plating images were taken of the whole well and the number and area of organoids formed were determined using ImageJ to calculate organoid forming efficiency. […]

Structure (SMILES): C=C[C@@]1(C)CC(=O)[C@]2(O)[C@@]3(C)[C@@H](O)CCC(C)(C)[C@@H]3[C@H](O)[C@H](OC(C)=O)[C@@]2(C)O1 [forskolin]
- squamous stratified organoid growth: further increased
